Assay results: PMC3484126
No constants are given. Whether binding was seen depends on the method and setting.

Amino acid sequences for entries named in this document (tags omitted). A change or cut given only in a name is not applied to a line headed by its entry. Chains listed by the source or under a name are the forms on record and can include a tag or linker.
KLF4-FlAsH (FlAsH-labelled full-length KLF4) (O43474-1, form named): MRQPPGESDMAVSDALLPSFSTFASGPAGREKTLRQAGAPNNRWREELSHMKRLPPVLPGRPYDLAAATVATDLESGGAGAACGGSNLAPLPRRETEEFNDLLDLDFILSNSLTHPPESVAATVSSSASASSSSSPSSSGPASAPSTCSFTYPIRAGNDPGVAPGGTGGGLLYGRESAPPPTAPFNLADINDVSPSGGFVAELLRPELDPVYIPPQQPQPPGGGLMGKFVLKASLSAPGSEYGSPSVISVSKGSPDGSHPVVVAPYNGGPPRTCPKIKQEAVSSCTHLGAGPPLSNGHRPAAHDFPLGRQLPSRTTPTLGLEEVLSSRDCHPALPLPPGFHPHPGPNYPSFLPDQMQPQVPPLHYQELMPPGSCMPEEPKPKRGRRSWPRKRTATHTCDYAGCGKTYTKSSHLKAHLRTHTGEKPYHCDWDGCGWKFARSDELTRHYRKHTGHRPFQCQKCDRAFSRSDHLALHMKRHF

What was measured:
[1] = target: KLF4, full-length, unlabelled (human) (UniProt O43474)
[2] = target: KLF4-FlAsH (FlAsH-labelled full-length KLF4) (human) (UniProt O43474)

Substance | binding [1] | binding [2]
KLF4, full-length, unlabelled (from UniProt O43474-1 1-479) | no binding (tested: 5 µM) | 
KLF4-FlAsH (FlAsH-labelled full-length KLF4) (from UniProt O43474-1 1-479) |  | no binding
